Source: article PMC4256260
These are yes or no findings as the source states them, for the method shown. Binding seen in cells or lysates may run through a third protein. Some binding calls cover weakened binding; strength is not graded here.

The chains behind the UniProt entries cited, without tags or fusion partners.
UniProt Q62029: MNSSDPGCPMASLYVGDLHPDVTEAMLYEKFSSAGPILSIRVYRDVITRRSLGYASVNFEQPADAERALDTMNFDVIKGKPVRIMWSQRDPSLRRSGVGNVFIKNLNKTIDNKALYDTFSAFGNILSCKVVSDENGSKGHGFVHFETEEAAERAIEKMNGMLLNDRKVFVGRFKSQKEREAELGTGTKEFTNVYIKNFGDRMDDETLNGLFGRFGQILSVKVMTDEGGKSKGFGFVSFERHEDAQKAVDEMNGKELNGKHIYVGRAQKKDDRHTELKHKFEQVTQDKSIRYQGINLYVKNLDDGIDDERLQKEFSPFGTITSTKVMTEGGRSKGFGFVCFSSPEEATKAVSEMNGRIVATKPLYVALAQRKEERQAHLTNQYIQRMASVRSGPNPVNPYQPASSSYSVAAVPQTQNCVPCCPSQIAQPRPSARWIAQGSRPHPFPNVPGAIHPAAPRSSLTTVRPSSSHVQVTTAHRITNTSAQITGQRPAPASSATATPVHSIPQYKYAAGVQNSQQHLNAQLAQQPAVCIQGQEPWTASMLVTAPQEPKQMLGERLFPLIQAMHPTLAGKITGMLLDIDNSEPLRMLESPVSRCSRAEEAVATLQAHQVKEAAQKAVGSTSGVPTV
UniProt P29341: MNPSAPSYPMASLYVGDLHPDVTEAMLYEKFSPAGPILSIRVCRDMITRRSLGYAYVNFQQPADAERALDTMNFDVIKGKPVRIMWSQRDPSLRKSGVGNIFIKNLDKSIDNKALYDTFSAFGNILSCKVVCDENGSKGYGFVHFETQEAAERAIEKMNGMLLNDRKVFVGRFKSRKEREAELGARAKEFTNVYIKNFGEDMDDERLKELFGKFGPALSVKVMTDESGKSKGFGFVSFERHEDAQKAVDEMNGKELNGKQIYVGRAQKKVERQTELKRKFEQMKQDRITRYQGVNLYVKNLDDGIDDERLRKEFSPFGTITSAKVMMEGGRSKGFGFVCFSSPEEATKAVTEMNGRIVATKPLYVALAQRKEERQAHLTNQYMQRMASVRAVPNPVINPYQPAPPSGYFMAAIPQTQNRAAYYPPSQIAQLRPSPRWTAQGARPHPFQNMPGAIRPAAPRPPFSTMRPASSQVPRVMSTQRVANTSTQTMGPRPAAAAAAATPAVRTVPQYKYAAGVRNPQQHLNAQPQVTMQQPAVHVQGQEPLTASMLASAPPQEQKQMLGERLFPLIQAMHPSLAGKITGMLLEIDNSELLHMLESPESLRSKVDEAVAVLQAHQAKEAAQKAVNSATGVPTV
UniProt P69566: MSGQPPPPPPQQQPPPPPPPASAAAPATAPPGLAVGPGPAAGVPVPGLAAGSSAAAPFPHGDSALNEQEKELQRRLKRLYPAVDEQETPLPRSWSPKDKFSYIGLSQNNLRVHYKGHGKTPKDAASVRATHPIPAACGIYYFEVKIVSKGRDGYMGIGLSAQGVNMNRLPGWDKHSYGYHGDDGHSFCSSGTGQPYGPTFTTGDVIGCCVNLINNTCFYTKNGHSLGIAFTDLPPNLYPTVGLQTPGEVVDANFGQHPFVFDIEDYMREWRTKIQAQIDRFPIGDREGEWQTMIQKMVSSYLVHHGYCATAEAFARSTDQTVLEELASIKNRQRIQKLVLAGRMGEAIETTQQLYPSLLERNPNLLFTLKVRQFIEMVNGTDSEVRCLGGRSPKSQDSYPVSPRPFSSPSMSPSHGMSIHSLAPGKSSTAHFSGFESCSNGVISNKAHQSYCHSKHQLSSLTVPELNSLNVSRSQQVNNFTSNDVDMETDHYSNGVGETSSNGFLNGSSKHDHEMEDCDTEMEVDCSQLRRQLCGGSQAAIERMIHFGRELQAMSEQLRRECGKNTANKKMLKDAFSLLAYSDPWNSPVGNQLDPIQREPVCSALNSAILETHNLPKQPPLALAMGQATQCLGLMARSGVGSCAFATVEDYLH

Assays:
Assay in all cases: co-IP; in vivo co-immunoprecipitation from murine testes: antibodies specific for PABPC1, PABPC2, SF3B3 or HNRNPM used for IP, Western blot with mouse monoclonal anti-RANBP9 antibody; IgG as negative control
[1] = molecular target: poly(A) binding protein PABPC2 (mouse (endogenous in testis)) (UniProt Q62029)
[2] = molecular target: T1, splicing factor HNRNPM (mouse (endogenous in testis)) (UniProt Q9D0E1)
T1 sequence: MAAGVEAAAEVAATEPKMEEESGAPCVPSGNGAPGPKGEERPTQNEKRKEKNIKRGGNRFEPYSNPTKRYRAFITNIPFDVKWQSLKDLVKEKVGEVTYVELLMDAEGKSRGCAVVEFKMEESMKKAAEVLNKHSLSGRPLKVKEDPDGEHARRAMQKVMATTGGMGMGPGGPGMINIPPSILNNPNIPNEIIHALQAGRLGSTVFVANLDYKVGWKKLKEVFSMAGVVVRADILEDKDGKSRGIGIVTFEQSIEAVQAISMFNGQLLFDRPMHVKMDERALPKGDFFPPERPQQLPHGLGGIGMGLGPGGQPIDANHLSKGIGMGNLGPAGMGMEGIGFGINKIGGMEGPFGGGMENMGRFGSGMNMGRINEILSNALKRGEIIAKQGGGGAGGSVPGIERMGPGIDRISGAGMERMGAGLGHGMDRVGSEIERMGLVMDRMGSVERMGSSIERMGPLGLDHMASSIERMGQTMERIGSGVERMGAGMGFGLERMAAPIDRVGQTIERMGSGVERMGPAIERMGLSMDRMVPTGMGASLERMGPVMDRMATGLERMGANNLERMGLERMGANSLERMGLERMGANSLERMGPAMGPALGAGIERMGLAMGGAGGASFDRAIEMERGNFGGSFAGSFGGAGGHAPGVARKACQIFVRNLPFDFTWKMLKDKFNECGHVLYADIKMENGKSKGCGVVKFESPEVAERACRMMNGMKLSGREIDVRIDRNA

[3] = molecular target: T2, splicing factor SF3B3 (mouse (endogenous in testis)) (UniProt Q921M3)
T2 sequence: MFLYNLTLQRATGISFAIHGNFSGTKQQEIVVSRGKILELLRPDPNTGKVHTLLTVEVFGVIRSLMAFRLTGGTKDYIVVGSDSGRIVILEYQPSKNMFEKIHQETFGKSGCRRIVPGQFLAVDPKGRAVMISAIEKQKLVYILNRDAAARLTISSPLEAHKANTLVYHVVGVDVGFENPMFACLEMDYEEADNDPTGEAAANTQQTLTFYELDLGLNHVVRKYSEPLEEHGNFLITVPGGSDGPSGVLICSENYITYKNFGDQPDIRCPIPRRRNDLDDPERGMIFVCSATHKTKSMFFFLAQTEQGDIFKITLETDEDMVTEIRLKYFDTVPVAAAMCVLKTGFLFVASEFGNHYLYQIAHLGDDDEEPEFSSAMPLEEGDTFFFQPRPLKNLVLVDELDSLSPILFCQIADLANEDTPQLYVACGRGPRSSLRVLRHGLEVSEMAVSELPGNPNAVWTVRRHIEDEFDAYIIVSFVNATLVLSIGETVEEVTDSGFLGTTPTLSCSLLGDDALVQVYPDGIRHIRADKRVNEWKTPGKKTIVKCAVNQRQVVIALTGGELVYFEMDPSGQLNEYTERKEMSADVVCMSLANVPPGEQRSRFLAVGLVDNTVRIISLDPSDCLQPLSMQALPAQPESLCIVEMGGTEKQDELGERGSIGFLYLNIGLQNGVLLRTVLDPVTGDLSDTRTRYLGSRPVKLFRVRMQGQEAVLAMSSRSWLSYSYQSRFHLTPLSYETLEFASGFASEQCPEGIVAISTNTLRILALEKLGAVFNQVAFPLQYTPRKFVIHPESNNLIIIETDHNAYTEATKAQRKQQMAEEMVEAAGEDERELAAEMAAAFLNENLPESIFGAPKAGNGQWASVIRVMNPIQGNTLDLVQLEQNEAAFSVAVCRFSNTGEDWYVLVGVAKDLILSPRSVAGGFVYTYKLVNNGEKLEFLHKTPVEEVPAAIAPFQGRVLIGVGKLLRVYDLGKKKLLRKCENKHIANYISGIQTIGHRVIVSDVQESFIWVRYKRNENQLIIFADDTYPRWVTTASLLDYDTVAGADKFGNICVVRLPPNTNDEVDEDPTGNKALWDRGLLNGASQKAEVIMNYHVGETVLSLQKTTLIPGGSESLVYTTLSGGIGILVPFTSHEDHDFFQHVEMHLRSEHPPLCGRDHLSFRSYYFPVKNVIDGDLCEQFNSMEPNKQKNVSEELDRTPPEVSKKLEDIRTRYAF

[4] = molecular target: poly(A) binding protein PABPC1 (mouse (endogenous in testis)) (UniProt P29341)

Measured: binding

RAN-binding protein 9 (RANBP9) (from UniProt P69566 1-653)
binds: all assays above
